Experimental data: patent US12692310B2, “ASIC1 channel antagonist antibody” (ShanghaiTech University, priority 2019, dated 2026)
No constants are given. Whether binding was seen depends on the method and setting. Some binding calls cover weakened binding; strength is not graded here.

Legend:
[1] = molecular target: T1, ectodomain of hASIC1a (hASIC1a-ECD) (human) (UniProt P78348); assay: gel filtration (Superdex 200)
T1 sequence (looked up): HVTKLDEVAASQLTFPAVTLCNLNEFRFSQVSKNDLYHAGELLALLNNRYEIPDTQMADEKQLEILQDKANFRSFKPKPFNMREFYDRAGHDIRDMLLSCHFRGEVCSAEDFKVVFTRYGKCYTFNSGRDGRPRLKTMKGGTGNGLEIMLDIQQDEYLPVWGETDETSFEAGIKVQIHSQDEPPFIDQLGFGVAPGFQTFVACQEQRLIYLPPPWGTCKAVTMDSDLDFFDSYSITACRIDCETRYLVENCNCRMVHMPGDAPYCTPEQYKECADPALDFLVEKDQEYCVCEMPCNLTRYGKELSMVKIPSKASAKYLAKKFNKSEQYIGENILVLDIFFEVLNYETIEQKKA

[2] = molecular target: T1, ectodomain of hASIC1a (hASIC1a-ECD) (human); assay: negative-stain EM, 2D class averages
[3] = molecular target: T1, ectodomain of hASIC1a (hASIC1a-ECD) (human); assay: gel filtration (Superdex 200, 24 mL) of the mixture of ASC06-Fab and hASIC1a-ECD, compared with each alone
[4] = molecular target: T1, ectodomain of hASIC1a (hASIC1a-ECD) (human); assay: gel filtration of ASC06-Fab and hASIC1a-ECD mixed 3:1

Measured: binding

B1: ASC06-Fab (Fab, V domains shown)
VH: QVQLQQSGGGLVQPGGSLRLSCAASGFTFSSYAMSWVRQAPGKGLEWVSAISGSGGSTYYADSVKGRFTISRDNSKNTLYLQMNSLRAEDTAVYYCAKDSFYGYSKGDWGQGTLVTVSS
VL: QSALTQPASVSGSPGQSITISCTGTSSDVGAYNYVSWYQQQPGKAPKLMIYGVSNRPSGVSNRFSGSKSGNAASLTISGLQAEDEADYYCSSYTSSSTYVFGTGTKLTVLG
binds: all assays above
